Laboratory results: PubChem BioAssay AID1347075 (National Center for Advancing Translational Sciences (NCATS), 2019)
Hit rate of the full screen: of about 400,000 compounds, about 5,500 (1.4%) were called active. Inconclusive results, whose numbers are uncertain, are shown with a selection of clear calls. Calls follow the shape of the dose curve; as a rule, active = well fitted cell-killing curve with a large enough effect; inconclusive = small, poorly fitted or top-dose-only effect, or effect the other way; inactive = flat fitted curve, though single readings scatter. Where the call is inconclusive, the potency comes from a doubtful curve fit.

Assay: qHTS assay for MDR1-selective chemotherapeutics: Primary screen using the parental adenocarcinoma cell KB-3-1; also: nearly all actives have a fitted effect of over 60% in size
Conditions: KB-3-1 viability, CellTiter-Glo ATP luminescence, 72 h; activity change, negative = cytotoxic: at 46.1 µM (top of the series)
Outline: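 Multi-concentration cytotoxicity screen in KB-3-1 cells grown in DMEM lacking phenol red with 10% FBS. After 72 h at 37 °C with compound, ATP-dependent luminescence was recorded.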
% is scaled to controls: 0 for no effect and ±100 for the full control effect; potency is read from the fitted curve at half-maximal effect.

| SMILES | Potency | activity change, negative = cytotoxic |
| --- | --- | --- |
| O=C(N/N=C/c1c(O)ccc2ccccc12)c1ccc(Br)o1 | inconclusive: 2.91 µM [cytotoxic, full curve, poor fit] |  |
| COC(=O)c1cn(NC(=O)Cc2ccc(Cl)cc2)c(=O)c2ccccc12 |  | inactive: 21.3% |
| Cc1ccc(-c2c(C#N)c(N)nc3c2CCCCC3)o1 | inconclusive: 29.1 µM [cytotoxic, single point] |  |
| COc1ccccc1NS(=O)(=O)c1cccc(NC(=O)Nc2ccc(Cl)cc2)c1 | inconclusive: 25.9 µM [cytotoxic, single point] |  |
| CCOc1ccccc1N(CC)C(=O)c1noc2c1COc1ccc(C)cc1-2 | inconclusive: 18.4 µM [cytotoxic, single point] |  |
| O=C(NC1CCCCC1)c1ccc2c(c1)N(Cc1ccc(Cl)cc1)C(=O)c1ccccc1S2=O (stereo not given) |  | inactive: 5.96% |
| Cc1ccc(C(=O)N2CCN(Cc3ccc4c(c3)OCO4)CC2)o1 |  | inactive: -1.84% |
| CCN(C(=O)COC(=O)CNC(=O)c1ccc(Cl)cc1Cl)c1c(N)n(Cc2ccccc2)c(=O)[nH]c1=O |  | inconclusive: 17.8% |
| CC[n+]1c(/C=C/Nc2ccccc2)sc2ccccc21 | inconclusive: 20.6 µM [cytotoxic, single point] |  |
| Cc1cc(N2CCN(C)CC2)nc2ccc(NC(=O)c3ccc(Br)o3)cc12 | inconclusive: 29.1 µM [cytotoxic, single point] |  |
| O=C(CN(Cc1ccco1)Cc1ccco1)Nc1cc(S(=O)(=O)N2CCCCC2)ccc1Cl | inconclusive: 20.6 µM [cytotoxic, single point] |  |
| COc1ccc(Cn2nnnc2C(c2cccs2)N2CCCCCC2)cc1 (stereo not given) | inconclusive: 18.4 µM [cytotoxic, single point] |  |
| CN(C)c1nc(/C=C(\C#N)C(N)=O)c(Cl)n1-c1ccc(F)cc1 | inconclusive: 18.4 µM [cytotoxic, single point] |  |
| CC(C)(C)c1ccc(C(=O)N2CCC2(C)C(=O)NCc2cccc3ccccc23)cc1 (stereo not given) | inconclusive: 29.1 µM [cytotoxic, single point] |  |
| CCOC(=O)c1nn(-c2ccccc2)c(=O)c2c(N)scc12 | inconclusive: 29.1 µM [cytotoxic, single point] |  |
| Cc1nc2ccccc2c2nc(NC(=O)C(F)(F)F)nn12 |  | inactive: 11.2% |
| O=C1c2ccccc2C(=O)c2c1oc(C(F)(F)F)c2C(=O)c1ccccc1 | active: 4.61 µM |  |
| CC1CN(S(=O)(=O)c2cc(C(=O)NCCC3=CCCCC3)ccc2Cl)CC(C)O1 (stereo not given) | inconclusive: 29.1 µM [cytotoxic, single point] |  |
| O=C(NC1CC1)C1CCN(S(=O)(=O)c2cc([N+](=O)[O-])ccc2Cl)CC1 | inconclusive: 16.4 µM [rising, partial curve, poor fit] |  |
| CC(Oc1cc(-c2ccccc2)cc2ccccc12)C(=O)N1CCOCC1 (stereo not given) | inconclusive: 29.1 µM [cytotoxic, single point] |  |
| COc1ccc(CCC(=O)NCCc2csc(-c3ccc(Cl)cc3)n2)cc1 | inconclusive: 29.1 µM [cytotoxic, single point] |  |
| COc1cc(OC)cc(C2=Cc3ccc(OC)cc3C(CC(C)=O)N2c2ccc(-c3cccs3)cc2)c1 (stereo not given) | active: 7.31 µM |  |
| Cc1ccc2cccc(NC(=O)c3ccc(-c4cccc(Cl)c4)o3)c2n1 |  | inactive: -2.85% |

| SMILES | Potency | activity change, negative = cytotoxic |
| --- | --- | --- |
| CCCNC(=S)Nc1ccc(Oc2ccccc2)cc1 | inconclusive: 18.4 µM [cytotoxic, partial curve, poor fit] |  |
| CCOc1ccc(Nc2c(S(=O)(=O)c3ccccc3)cnc3ccccc23)cc1 | inconclusive: 20.6 µM [cytotoxic, single point] |  |
| COC(=O)CNC(=O)CSc1nnc(-c2ccc(OC)cc2)n1CC(C)C | inconclusive: 18.4 µM [cytotoxic, single point] |  |
| COc1cc(C2c3cc4c(cc3C(O)C3COCC23)OCO4)cc(OC)c1OC (stereo not given) | active: 5.17 µM |  |
| O=C(C1CCCN(c2ncnc3c2nc2n3CCCCC2)C1)N1CCN(c2ccc(Cl)cc2)CC1 (stereo not given) | active: 16.4 µM |  |
| O=C(CC1SC(=Nc2ccccc2)N(Cc2ccccn2)C1=O)Nc1cccc(Cl)c1 (stereo not given) | inconclusive: 29.1 µM [cytotoxic, single point] |  |
| O=C(c1ccc2c(c1)OCO2)N1CCN(c2ccccc2F)CC1 | inconclusive: 10.3 µM [rising, partial curve, poor fit] |  |
| O=C(Nc1nc(-c2cc(Cl)sc2Cl)cs1)c1ccc(Br)s1 | active: 20.6 µM |  |
| Cc1cc(N2CCN(C)CC2)n2cc(-c3ccc(F)cc3)nc2n1 | inconclusive: 2.91 µM [cytotoxic, partial curve, poor fit] |  |
| CCOc1cccc(C2C=C(c3ccc4c(c3)OCO4)NC(c3ccc(Cl)cc3)N2)c1O (stereo not given) | active: 10.3 µM |  |
| CCOc1ccc(S(=O)(=O)Nc2cc(S(=O)(=O)N3CCOCC3)ccc2OC)cc1 |  | inactive: -1.83% |
| CC1=C(C)CS(=O)N(S(=O)(=O)c2ccc(Cl)cc2)C1 (stereo not given) | inconclusive: 23.1 µM [cytotoxic, single point] |  |
| CCc1ccccc1NC1=NCC(=O)N1Cc1ccc(OC)cc1 |  | inactive: 0% |
| O=C(NCc1ccco1)/C(=C/c1ccc(C(F)(F)F)cc1)c1nc2ccccc2[nH]1 | inconclusive: 16.4 µM [cytotoxic, single point] |  |
| COc1ccc(NC(=O)CSc2n[nH]c(-c3ccccn3)n2)cc1 | inconclusive: 23.1 µM [cytotoxic, single point] |  |
| O=C(NN1C(=O)/C(=C/c2ccc(O)cc2)SC1=S)c1ccccc1O |  | inactive: 1.26% |
| Cc1ccc(NC(=O)CN2C(=O)C3(SCC(=O)N3c3ccc(F)c(F)c3)c3ccccc32)c(C)c1 (stereo not given) |  | inactive: -5.46% |
| Cc1cc(C)n(-c2nc(NCCN(C)C)c3c4c(sc3n2)COC(C)(C)C4)n1 |  | inactive: -9.4% |
| CCOc1ccc(-n2cc(C(=O)NCc3ccco3)c3cc(OC)c(OC)cc3c2=O)cc1 | active: 0.517 µM |  |
| CCOc1ccccc1OCC(=O)Nc1nc2ccccc2[nH]1 |  | inactive: 21.7% |
| CN1/C(=N\O)c2cccc3cccc1c23 | inconclusive: 29.1 µM [cytotoxic, single point] |  |
| COc1ccc(Cl)cc1NC(=O)NCC1CCN(Cc2ccccc2F)CC1 | inconclusive: 18.4 µM [cytotoxic, single point] |  |
